Experimental data published in PMC8500839, “Structures of outer-arm dynein array on microtubule doublet reveal a motor coordination mechanism” (Nature Structural & Molecular Biology, 2021).
These are yes or no findings as the source states them, for the method shown. Some entries that bind do so weakly or less than the wild type.

Sequences of proteins named here, by UniProt entry; tags and fusion partners are left off.
UniProt P41352: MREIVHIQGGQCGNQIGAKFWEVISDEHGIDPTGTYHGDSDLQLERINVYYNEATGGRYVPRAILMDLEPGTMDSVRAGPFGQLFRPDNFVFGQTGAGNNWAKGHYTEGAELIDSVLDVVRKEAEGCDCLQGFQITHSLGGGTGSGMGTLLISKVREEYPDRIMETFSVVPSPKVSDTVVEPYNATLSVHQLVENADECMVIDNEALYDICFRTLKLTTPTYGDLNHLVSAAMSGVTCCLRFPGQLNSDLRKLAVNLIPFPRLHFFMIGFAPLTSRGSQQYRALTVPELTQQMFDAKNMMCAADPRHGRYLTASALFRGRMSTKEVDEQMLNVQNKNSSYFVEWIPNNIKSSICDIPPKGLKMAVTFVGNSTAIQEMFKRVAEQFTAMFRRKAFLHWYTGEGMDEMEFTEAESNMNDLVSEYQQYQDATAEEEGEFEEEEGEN
UniProt I7M6H4: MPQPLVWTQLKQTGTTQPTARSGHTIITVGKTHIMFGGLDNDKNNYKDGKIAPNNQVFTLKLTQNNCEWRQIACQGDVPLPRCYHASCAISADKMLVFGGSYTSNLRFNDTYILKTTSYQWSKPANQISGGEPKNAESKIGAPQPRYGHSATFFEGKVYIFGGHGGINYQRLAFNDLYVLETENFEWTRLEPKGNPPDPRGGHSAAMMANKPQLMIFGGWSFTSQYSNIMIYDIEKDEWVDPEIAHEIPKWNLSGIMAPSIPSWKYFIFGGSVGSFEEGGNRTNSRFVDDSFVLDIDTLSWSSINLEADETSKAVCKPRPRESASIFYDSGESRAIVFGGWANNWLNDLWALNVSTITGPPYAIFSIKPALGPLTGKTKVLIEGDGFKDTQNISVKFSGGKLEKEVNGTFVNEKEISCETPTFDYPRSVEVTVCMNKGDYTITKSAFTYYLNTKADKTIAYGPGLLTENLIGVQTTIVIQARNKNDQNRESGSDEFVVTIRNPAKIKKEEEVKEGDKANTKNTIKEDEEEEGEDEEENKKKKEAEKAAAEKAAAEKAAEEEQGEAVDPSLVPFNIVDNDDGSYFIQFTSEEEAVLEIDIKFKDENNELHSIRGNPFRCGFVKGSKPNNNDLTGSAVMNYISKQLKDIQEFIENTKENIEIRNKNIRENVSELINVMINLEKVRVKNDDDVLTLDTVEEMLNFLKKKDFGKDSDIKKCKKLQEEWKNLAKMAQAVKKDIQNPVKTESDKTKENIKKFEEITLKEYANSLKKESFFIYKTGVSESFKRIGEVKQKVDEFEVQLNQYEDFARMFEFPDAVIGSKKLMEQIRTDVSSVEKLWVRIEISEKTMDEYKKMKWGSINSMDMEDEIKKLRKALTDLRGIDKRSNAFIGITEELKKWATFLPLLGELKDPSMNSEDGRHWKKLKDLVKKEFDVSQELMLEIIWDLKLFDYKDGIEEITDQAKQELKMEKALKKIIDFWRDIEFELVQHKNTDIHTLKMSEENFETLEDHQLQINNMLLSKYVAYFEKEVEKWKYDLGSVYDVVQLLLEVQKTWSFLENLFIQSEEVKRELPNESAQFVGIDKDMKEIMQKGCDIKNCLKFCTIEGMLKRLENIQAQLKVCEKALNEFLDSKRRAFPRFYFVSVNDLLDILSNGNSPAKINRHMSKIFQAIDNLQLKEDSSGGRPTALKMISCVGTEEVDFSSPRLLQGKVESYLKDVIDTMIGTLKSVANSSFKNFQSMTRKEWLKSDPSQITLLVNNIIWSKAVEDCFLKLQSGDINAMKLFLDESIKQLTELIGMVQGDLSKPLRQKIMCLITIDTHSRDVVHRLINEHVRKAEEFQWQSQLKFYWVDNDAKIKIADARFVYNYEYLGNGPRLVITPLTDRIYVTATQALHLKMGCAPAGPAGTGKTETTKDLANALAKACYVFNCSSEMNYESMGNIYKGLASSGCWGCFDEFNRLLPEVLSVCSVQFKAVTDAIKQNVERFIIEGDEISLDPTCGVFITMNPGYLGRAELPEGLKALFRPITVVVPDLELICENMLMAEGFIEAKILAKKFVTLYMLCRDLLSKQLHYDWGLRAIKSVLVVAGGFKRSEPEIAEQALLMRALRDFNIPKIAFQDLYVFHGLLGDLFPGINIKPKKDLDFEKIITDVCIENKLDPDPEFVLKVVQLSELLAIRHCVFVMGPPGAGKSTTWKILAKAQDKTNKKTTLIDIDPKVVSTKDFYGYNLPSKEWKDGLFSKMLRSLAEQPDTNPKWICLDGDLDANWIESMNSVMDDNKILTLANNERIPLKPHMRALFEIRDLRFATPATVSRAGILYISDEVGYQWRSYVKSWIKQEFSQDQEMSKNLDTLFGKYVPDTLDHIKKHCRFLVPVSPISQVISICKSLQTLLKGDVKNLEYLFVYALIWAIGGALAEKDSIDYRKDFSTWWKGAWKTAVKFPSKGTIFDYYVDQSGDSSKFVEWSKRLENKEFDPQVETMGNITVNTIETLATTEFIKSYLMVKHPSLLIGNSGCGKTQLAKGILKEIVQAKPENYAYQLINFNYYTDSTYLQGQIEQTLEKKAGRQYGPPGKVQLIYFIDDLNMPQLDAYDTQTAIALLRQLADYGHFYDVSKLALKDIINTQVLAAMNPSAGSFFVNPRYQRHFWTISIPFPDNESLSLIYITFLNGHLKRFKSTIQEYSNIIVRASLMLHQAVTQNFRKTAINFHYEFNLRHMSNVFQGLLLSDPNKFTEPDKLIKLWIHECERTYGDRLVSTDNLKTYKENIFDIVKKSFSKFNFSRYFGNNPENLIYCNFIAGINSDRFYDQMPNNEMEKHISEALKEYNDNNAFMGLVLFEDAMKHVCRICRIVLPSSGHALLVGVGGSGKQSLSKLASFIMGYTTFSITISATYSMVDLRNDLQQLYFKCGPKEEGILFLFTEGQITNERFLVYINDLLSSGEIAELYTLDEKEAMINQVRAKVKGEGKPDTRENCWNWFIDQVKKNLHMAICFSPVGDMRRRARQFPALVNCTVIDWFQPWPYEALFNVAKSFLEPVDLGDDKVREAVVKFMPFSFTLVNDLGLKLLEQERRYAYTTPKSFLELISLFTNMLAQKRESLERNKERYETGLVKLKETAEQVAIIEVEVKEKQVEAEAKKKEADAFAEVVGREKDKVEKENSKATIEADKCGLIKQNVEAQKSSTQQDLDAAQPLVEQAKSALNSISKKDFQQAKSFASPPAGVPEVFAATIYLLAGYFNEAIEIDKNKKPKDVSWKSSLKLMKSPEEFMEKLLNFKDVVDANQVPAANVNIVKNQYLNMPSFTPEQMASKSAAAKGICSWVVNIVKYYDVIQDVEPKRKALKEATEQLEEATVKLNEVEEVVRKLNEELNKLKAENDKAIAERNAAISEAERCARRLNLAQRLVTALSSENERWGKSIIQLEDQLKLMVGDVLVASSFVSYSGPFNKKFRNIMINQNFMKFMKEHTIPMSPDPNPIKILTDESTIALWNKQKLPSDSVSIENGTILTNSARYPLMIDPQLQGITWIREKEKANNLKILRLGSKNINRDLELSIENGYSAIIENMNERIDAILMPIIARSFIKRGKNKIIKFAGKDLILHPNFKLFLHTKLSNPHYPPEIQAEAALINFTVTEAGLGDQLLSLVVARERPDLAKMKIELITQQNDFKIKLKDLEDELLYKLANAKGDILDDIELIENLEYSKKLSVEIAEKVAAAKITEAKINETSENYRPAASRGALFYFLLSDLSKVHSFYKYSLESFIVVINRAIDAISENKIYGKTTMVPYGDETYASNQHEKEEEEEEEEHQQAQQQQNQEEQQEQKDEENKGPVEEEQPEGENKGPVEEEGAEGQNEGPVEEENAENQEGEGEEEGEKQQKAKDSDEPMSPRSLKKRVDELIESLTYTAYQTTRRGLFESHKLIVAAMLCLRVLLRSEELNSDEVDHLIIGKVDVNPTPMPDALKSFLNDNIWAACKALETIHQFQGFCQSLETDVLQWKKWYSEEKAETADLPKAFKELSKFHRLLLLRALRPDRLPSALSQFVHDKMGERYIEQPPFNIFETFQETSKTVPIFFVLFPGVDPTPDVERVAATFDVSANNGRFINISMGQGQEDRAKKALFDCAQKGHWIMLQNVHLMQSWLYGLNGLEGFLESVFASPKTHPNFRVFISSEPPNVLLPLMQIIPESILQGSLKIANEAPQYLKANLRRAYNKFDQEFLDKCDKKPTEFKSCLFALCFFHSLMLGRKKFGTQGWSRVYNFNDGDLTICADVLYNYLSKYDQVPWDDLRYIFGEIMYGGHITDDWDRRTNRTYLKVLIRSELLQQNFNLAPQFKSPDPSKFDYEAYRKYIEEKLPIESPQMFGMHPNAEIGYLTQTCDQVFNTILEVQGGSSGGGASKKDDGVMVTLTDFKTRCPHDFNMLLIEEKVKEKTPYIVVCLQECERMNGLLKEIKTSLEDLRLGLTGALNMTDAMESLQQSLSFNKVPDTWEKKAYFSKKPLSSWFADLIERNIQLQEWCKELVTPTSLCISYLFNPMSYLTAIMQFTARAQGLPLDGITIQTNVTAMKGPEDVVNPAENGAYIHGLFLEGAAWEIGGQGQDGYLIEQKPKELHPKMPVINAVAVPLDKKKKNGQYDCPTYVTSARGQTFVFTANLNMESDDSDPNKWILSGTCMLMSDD

How the values were obtained:
[1] = biological target: outer-arm dynein β heavy chain (T. thermophila) (UniProt O76506); experiment: cryo-EM structure; freshly purified native OAD (not cross-linked) reconstituted on MTD in 20 mM HEPES pH 7.4, 100 mM KCl, 5 mM MgSO4, 1 mM DTT, on ice 45 min; apo state, no docking complex; two classes MTBS-1 and MTBS-2; MTD lattice refined from the same data; both purified
[2] = biological target: β-tubulin of the microtubule doublet (T. thermophila) (UniProt P41352); experiment: as above

Substance | binding [1] | binding [2]
outer-arm dynein α heavy chain (from UniProt Q22A67 1-4620) | binds | 
outer-arm dynein γ heavy chain (from UniProt I7M6H4 1-4168) | binds | binds
